PubChem BioAssay AID743454, Peter MacCallum Cancer Centre – 2014

- Aim: 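Knock-downs lowering viability or raising caspase 3/7 activity in vorinostat-treated resistant cells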 (primary screen)
- Cell system: human HCT116-VR colon cancer cells, selected for vorinostat resistance
- Knock-down reagent: siRNA pool against human genes, 40 nM siRNA pool
- Duration: vorinostat for 24 h, read-out about 72 h after transfection
- Conditions: vorinostat at 2.5 µM final
- Measured: 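Cell viability by CellTiter-Fluor and caspase 3/7 activity by luminescence, each scaled to mock wells per plate, duplicates averaged, then robust z-scored over all plates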
- Scale: viability robust z-score: higher = more viable cells than screen typical; caspase robust z-score: higher = more caspase 3/7 activity than screen typical
- Rule for the call: 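a knock-down is a hit when classed RV1 or RV2 for lowered viability, or CA1 or CA2 for caspase activation; those lethal without drug were dropped; hits were retested singly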
This is one part, drawn at random, of about 18,000 reagents tested. In the full data, 450 (2.5%) got an active call. 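Single biological run; no consistent viability z cut-off exists, so the class columns, not z-scores, define the calls.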

gene knocked down	viability hit class	caspase hit class	viability robust z-score	caspase robust z-score	call
PYDC1	no change	no change	1.1	-0.08	inactive
MFAP1	no change	no change	-3.01	-0.7	inactive
TMEM167A	no change	no change	2.14	0.02	inactive
ARPC1B	no change	no change	0.26	1.56	inactive
CHD1L	no change	no change	0.5	-0.74	inactive
MPPED2	no change	no change	-0.74	1.21	inactive
FBXO6	no change	no change	-1.25	2.58	inactive
SPATS2L	no change	no change	0.4	-0.5	inactive
PLCE1	no change	no change	-0.58	0.93	inactive
CNTD1	no change	no change	-0.92	-0.67	inactive
GNLY	no change	no change	-0.36	2.39	inactive
RBPMS	no change	no change	0.66	-1	inactive
TBC1D10C	no change	no change	-0.27	-1.24	inactive
IKZF3	no change	no change	0.84	-0.66	inactive
ANAPC5	no change	no change	-1.06	-0.32	inactive
PNLIPRP2	no change	no change	0.94	2.4	inactive
IPPK	no change	no change	0.26	0.6	inactive
PDE9A	no change	no change	0.44	0.26	inactive
WNT9A	no change	no change	0.13	0.94	inactive
SLC38A6	no change	no change	-0.28	-0.06	inactive
LMBRD1	no change	no change	0.4	-0.1	inactive
LRRC28	no change	no change	-0.14	0.56	inactive
PAGE3	no change	no change	-1.46	-0.02	inactive
TIMP3	no change	no change	0.04	0.36	inactive
ANO6	no change	no change	0.6	0.08	inactive
ZBTB5	no change	no change	0.32	0.43	inactive
DELEC1	no change	no change	0.57	0.68	inactive
MRM1	no change	no change	-2.63	3.71	inactive
CHMP7	no change	no change	-1.58	-0.06	inactive
SMIM3	no change	no change	1.29	-0.28	inactive
H1-3	no change	no change	-0.38	-0.75	inactive
SUPV3L1	no change	no change	1.64	-0.57	inactive
SRPRA	no change	no change	-0.49	0.9	inactive
IFT20	no change	no change	0	-0.22	inactive
VHLL	no change	no change	0.19	0.48	inactive
TIMM50	no change	no change	0.66	0.99	inactive
TM9SF3	no change	no change	0.99	0.05	inactive
RHNO1	no change	no change	-0.61	-0.77	inactive
DPH6	no change	no change	-1.05	-0.2	inactive

4 entries from above, sorted by “caspase robust z-score”, low to high.
gene knocked down	viability hit class	caspase hit class	viability robust z-score	caspase robust z-score	call
LMBRD1	no change	no change	0.4	-0.1	inactive
SLC38A6	no change	no change	-0.28	-0.06	inactive
LRRC28	no change	no change	-0.14	0.56	inactive
WNT9A	no change	no change	0.13	0.94	inactive
